Measurements as given in patent publication US9320698B2, “Peptide tyrosinase inhibitors and uses thereof” (Escape Therapeutics, Inc., priority 2011, dated 2016).
Not every detail of the peptide structures is certain; ends, links or a residue may be inferred. Some of these results come from one statement about several compounds together. Some ranges recur; such a range may be that of the whole group of compounds. No end group written: not given here.

Legend:
MNTI cells = assay: Melanin content measurement in MNTI cells; format: cell-based, human; conditions: octapeptide at twice the IC50, 3 days
[1] = tested on: primary human keratinocytes; conditions: up to 1 mM, 72 h
Method: (§1) The three cell types were incubated with varying concentrations of the test compounds for 72 h at 37° C. and then processed using the MTT assay. Data are presented as % toxicity relative to the control as a function of concentration, and plotted as means±S.E of 5 independent trials. **p<0.01.
(§2) Keratinocytes, fibroblast, and melanocyte proliferation rates were determined using a TACS® MTT Cell Proliferation Kit (R&D systems, Minneapolis, Minn.). Cells were plated at 2.5×10^4/well in 96-well plates in a humidified atmosphere with 5% CO2 at 37° C. Twenty-four h after plating, test samples were added and cultures were incubated for an additional 72 h. The remainder of the procedure was performed following the manufacturer's protocol.
(§3) Proliferation rates were then assessed at 3 d using an MTT assay.

[2] = tested on: primary human melanocytes; conditions: up to 1 mM, 72 h
Method: as §1, §2, §3

[3] = tested on: primary human fibroblasts; conditions: up to 1 mM, 72 h
Method: as §1, §2, §3

Sequence: RRYWYWRR [Peptide P18]
- total melanin content reduced by (MNTI cells): 41±3%
- reduction of proliferation relative to untreated controls [1]: 0-10%
- reduction of proliferation relative to untreated controls [2]: 0-10%
- reduction of proliferation relative to untreated controls [3]: 0-10%

Sequence: RRWWRRYY [Peptide P16]
- total melanin content reduced by (MNTI cells): 45±2%
- reduction of proliferation relative to untreated controls [1]: 0-10%
- reduction of proliferation relative to untreated controls [2]: 0-10%
- reduction of proliferation relative to untreated controls [3]: 0-10%

Sequence: RRRYWYYR [Peptide P17]
- total melanin content reduced by (MNTI cells): 38±2%
- reduction of proliferation relative to untreated controls [1]: 0-10%
- reduction of proliferation relative to untreated controls [2]: 0-10%
- reduction of proliferation relative to untreated controls [3]: 0-10%
